No constants are given. Whether binding was seen depends on the method and setting. Binding seen in cells or lysates may run through a third protein. Some results given as binding are weak or reduced against the parent protein; the word gives no strength.

Sequences of proteins named here, by UniProt entry; tags and fusion partners are left off.
UniProt Q2TBA3: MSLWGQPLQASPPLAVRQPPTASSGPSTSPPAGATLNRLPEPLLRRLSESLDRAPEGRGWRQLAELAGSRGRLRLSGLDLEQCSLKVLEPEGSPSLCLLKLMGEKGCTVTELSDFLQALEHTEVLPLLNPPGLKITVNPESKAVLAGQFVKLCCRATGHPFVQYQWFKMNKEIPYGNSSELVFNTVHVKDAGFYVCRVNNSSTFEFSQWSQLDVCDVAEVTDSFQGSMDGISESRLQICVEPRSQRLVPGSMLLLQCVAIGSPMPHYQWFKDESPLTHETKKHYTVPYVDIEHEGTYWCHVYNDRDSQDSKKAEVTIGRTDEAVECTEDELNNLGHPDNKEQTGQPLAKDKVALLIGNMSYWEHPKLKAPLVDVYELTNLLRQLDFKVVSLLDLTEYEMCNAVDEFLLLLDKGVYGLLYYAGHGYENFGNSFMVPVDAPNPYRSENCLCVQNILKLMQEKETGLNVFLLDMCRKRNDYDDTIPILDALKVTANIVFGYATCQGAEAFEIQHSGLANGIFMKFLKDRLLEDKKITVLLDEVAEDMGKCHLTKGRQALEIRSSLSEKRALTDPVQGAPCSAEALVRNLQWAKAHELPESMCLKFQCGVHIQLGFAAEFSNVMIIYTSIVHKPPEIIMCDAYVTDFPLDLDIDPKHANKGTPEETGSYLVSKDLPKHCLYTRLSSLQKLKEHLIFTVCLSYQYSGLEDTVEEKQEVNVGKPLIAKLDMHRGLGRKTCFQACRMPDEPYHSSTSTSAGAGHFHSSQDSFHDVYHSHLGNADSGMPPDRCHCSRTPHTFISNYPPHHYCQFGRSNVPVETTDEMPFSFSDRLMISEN

This experiment has as its target T1, Caspase activation and recruitment domain-containing protein 9 (mouse (endogenous in bone marrow-derived dendritic cells)) (UniProt A2AIV8).
T1 sequence: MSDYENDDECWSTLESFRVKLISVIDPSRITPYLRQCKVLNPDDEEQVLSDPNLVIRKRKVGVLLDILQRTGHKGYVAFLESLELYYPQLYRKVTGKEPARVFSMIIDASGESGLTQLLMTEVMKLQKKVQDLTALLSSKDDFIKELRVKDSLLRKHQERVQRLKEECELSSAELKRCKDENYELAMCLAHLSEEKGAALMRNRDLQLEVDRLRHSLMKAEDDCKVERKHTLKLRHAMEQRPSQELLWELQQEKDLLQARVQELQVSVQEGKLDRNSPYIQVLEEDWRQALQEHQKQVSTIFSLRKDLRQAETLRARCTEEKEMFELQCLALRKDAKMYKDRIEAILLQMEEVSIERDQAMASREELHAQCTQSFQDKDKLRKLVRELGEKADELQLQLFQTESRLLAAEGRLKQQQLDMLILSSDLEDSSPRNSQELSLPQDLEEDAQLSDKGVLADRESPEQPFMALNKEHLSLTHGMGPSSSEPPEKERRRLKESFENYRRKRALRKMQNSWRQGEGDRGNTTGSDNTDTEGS
As to the kind of experiment: co-IP; mBMDCs lysed in RIPA buffer, pre-cleared, anti-CARD9 antibody overnight at 4 °C, Protein G-Sepharose; blots for Bcl10 and MALT1; tumour-conditioned cells with or without NLGP, Laminarin, Dectin-1 siRNA, control siRNA.

For “Mucosa-associated lymphoid tissue lymphoma translocation protein 1 (from UniProt Q2TBA3 1-832)”, the binding result was “binds”.

B1: B cell lymphoma/leukemia 10 (protein, UniProt Q9Z0H7 1-233)
chain: MEAPAPSLTEEDLTEVKKDALENLRVYLCEKIIAERHFDHLRAKKILSREDTEEISCRTSSRKRAGKLLDYLQENPRGLDTLVESIRREKTQSFLIQKITDEVLKLRNIKLEHLKGLKCSSCEPFAAGATNNLSRCNSDESNLSEKQRASTVMYHPEGESSTAPFFSMASSLNLPVLEVGRTENSSFSSATLPRPGDPGAPPLPPDLRLEEGGSCGNSSEMFLPLRSRALSRQ
For the molecule B1, the binding entry is reported as “binds”.
